Where a name gives a salt, the structure may show the parent alone.
system: fibroblast cells (3T6)

| Compound | RxI (therapeutic index) = LD50/EC50 |
| --- | --- |
| 1,9-Diethyl Ethylthioninium chloride [DEETC] | 2,667 |
| CCN(CC)c1ccc2nc3ccc(N(CC)CC)cc3[s+]c2c1 [ETZ, Ethylthioninium Chloride (ETC) Zinc Chloride (Double Salt)] | 670 |
| Ethylthioninium Chloride [ETC] | 480 |
